{
  "source": "PubChem BioAssay AID651640",
  "about": "(Broad Institute, 2012)",
  "note": "Out of some 350,000 compounds screened, about 6,000 (1.7%) were called active. The shares of active, inactive and inconclusive entries below differ from those in the screen. No stated cut-off is given here; in the data, active means CPE inhibition above about 20% (passing the limit was not always enough); inconclusive means no clear call, values can overlap the other calls; tested in BHK-21 cells.",
  "data": [
    {"test": "protection of cells from dengue 2 killing – plate reader, single concentration, primary screen (AID 651640);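 further: 0% = median of neutral control wells and 100% = median of positive control wells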", "details": "DENV2-infected cells, cytopathic effect rescue, at 9.99 µM, active compounds read high", "values": [
      {"smiles": "CNC(=O)C[C@@H]1CC[C@H]2[C@H](COc3ccc(NC(=O)c4ccc5c(c4)OCO5)cc3C(=O)N2C)O1", "CPE inhibition": "inconclusive: 45.1%"},
      {"smiles": "O=C1N[C@@H](c2ccccc2)COC(=O)[C@H](Cc2ccc(F)cc2)CC/C=C/C[C@@H]1CC(=O)N(CCO)Cc1ccccc1", "CPE inhibition": "inconclusive: 26.8%"},
      {"smiles": "Cc1cccc(C(=O)OCC(=O)c2csc(N3CCCCC3)n2)c1[N+](=O)[O-]", "CPE inhibition": "inconclusive: 34.9%"},
      {"smiles": "Cc1ccsc1C(=O)OCC(=O)N(Cc1ccccc1)C(C)C", "CPE inhibition": "inactive: 0.499%"},
      {"smiles": "O=C1/C(=C\\c2cc([N+](=O)[O-])ccc2O)SC(=S)N1Cc1ccc(Cl)cc1", "CPE inhibition": "inconclusive: 30%"},
      {"smiles": "Clc1ccc2nc(CN3CCCCC3)cn2c1", "CPE inhibition": "inconclusive: 25.2%"},
      {"smiles": "C[C@@H]1CCCCO[C@H](CN(C)C(=O)C2CCCCC2)[C@@H](C)CN([C@H](C)CO)C(=O)c2cc(NC(=O)Nc3ccc(C(F)(F)F)cc3)ccc2O1", "CPE inhibition": "inactive: -0.38%"},
      {"smiles": "Cc1ccccc1S(=O)(=O)N1CCCCN2[C@@H](CO)[C@@H](c3ccc(-c4ccccc4)cc3)[C@@H]2C1", "CPE inhibition": "inactive: -6.95%"},
      {"smiles": "CCC1Nc2ncnc(N3CCCCC3)c2N(Cc2ccc(OC)cc2)C1=O", "note": "(stereo unspecified)", "CPE inhibition": "inconclusive: 20.4%"},
      {"smiles": "O=C(Nc1ncc(Cc2cccc([N+](=O)[O-])c2)s1)c1ccco1", "CPE inhibition": "inconclusive: 37%"},
      {"smiles": "Cc1ccc(C)c(C(Nc2ccccc2)c2ccc3ccc(C)nc3c2O)c1", "note": "(stereo unspecified)", "CPE inhibition": "active: 22.5%"},
      {"smiles": "O=C(NCCS(=O)(=O)NCc1ccc(F)cc1)c1ccc2c(c1)OCO2", "CPE inhibition": "active: 74.9%"},
      {"smiles": "COCCCN1C(=O)C(CC(=O)NCc2ccco2)CC(C(=O)N2CCOCC2)=C1C", "note": "(stereo unspecified)", "CPE inhibition": "inconclusive: 78.3%"},
      {"smiles": "CC(C)CC(=O)Nc1ccnn1C1CCN(C(=O)c2ccccc2F)CC1", "CPE inhibition": "inconclusive: 21%"},
      {"smiles": "C[C@@H]1CCCCO[C@H](CN(C)C(=O)Nc2ccc(C(F)(F)F)cc2)[C@H](C)CN([C@@H](C)CO)C(=O)c2cc(NS(=O)(=O)c3ccccc3)ccc2O1", "CPE inhibition": "active: 39.8%"},
      {"smiles": "COc1ccc(-c2noc3c2-c2nc(C4CCCCC4)sc2CC3)cc1", "CPE inhibition": "inconclusive: 70.3%"},
      {"smiles": "CCN(CC(=O)NCc1cccs1)C(=O)c1cccc(S(=O)(=O)NCc2ccccc2)c1", "CPE inhibition": "inconclusive: 71.2%"},
      {"smiles": "C[C@@H]1CN([C@@H](C)CO)C(=O)Cc2cc(NS(=O)(=O)c3ccc(Cl)cc3)ccc2O[C@@H]1CN(C)Cc1ccc(C(=O)O)cc1", "CPE inhibition": "inactive: 8.02%"},
      {"smiles": "COc1cc(C(=O)NCC(=O)Nc2ccc(F)c(F)c2)ccc1OCC(=O)N1CCOCC1", "CPE inhibition": "inconclusive: 38.9%"},
      {"smiles": "CCc1ccc(CN(C)C(=O)c2cc(COc3ccc(OC)cc3Cl)on2)nc1", "CPE inhibition": "inconclusive: 46.3%"},
      {"smiles": "Cc1ccc(S(=O)(=O)Nc2ccc3c(c2)CC(=O)N([C@@H](C)CO)C[C@H](C)[C@H](CN(C)C(=O)Nc2ccc4c(c2)OCO4)O3)cc1", "CPE inhibition": "inactive: 2.02%"},
      {"smiles": "CCOC(=O)[C@]12CCCC=C1N(CCC1=CCCCC1)C(=O)[C@H](CC(=O)NCc1ccc(OC)c(OC)c1)C2", "CPE inhibition": "active: 38%"},
      {"smiles": "C[C@H](CO)N1C[C@H](C)[C@H](CN(C)Cc2ccc(C(F)(F)F)cc2)Oc2c(NC(=O)C3CCOCC3)cccc2C1=O", "CPE inhibition": "inconclusive: 27.7%"},
      {"smiles": "C#CCOCCOCCOCCNc1nc(N2CCN(C(=O)CCCCCCCCCCNC(=O)Cn3cc(C[C@@H](C)O)nn3)CC2)nc(N2CCN(C(=O)CCCCCCCCCCNC(=O)[C@H](CO)n3cc(CCCSC)nn3)CC2)n1", "CPE inhibition": "inconclusive: 30.9%"},
      {"smiles": "CC(C)COc1cccc(C(=O)NC2(C)CCS(=O)(=O)C2)c1", "note": "(stereo unspecified)", "CPE inhibition": "inconclusive: 64.1%"},
      {"smiles": "COc1ccc(-c2ccc3c(c2)S(=O)(=O)c2cccc(C(=O)NCCOc4ccccc4Cl)c2C3=O)cc1OC", "CPE inhibition": "active: 21.9%"},
      {"smiles": "CC1CCCC(NC(=S)NC(=O)c2ccco2)C1C", "note": "(stereo unspecified)", "CPE inhibition": "inconclusive: 64.9%"},
      {"smiles": "CN1CCN(C(=O)C[C@H]2CC[C@@H]3[C@H](COC[C@@H](O)CN3S(=O)(=O)c3cccc(Cl)c3)O2)CC1", "CPE inhibition": "active: 22.7%"},
      {"smiles": "CO[C@H]1CN(C)C(=O)c2cc(NS(=O)(=O)c3ccc(Cl)cc3)ccc2OC[C@@H](C)NC[C@@H]1C", "CPE inhibition": "inactive: -8.14%"},
      {"smiles": "C[C@@H]1CCCCO[C@@H](CN(C)S(=O)(=O)c2ccccc2)[C@@H](C)CN([C@@H](C)CO)C(=O)c2cc(NC(=O)Nc3ccccc3)ccc2O1", "CPE inhibition": "inconclusive: 22.5%"},
      {"smiles": "Cc1ccccc1NC(=O)CN1C(=O)S/C(=C/c2cccnc2)C1=O", "CPE inhibition": "inactive: 1.57%"},
      {"smiles": "CCC(C)Sc1cc(-c2nc3ccc(Cl)cn3c2NC2CCCCC2)ccc1OC", "note": "(stereo unspecified)", "CPE inhibition": "inconclusive: 39.4%"},
      {"smiles": "CCCCCCCCNS(=O)(=O)CCNCc1ccco1", "CPE inhibition": "inconclusive: 35.2%"},
      {"smiles": "CO[C@@H](CN(C)Cc1cc(F)ccc1F)[C@H](C)CN([C@@H](C)CO)S(=O)(=O)c1ccc(F)cc1", "CPE inhibition": "inactive: 2.79%"},
      {"smiles": "CCCC(=O)Nc1cc2c3c(c1)CCN3C(=O)CC2", "CPE inhibition": "inconclusive: 27.2%"},
      {"smiles": "COC(=O)[C@H]1[C@@H](C)N(CCc2cc(OC)c(OC)c(OC)c2)C(=O)N[C@H]1c1ccccc1", "CPE inhibition": "inconclusive: 61.4%"},
      {"smiles": "CNS(=O)(=O)c1cccc(C(=O)OCC(=O)c2cc(C)n(CC3CCCO3)c2C)c1", "note": "(stereo unspecified)", "CPE inhibition": "inactive: 1.75%"},
      {"smiles": "CC(=O)Nc1ccc(NC(=O)CSc2nc(=O)n(Cc3cccnc3)c3c2CCC3)cc1", "CPE inhibition": "inconclusive: 59%"},
      {"smiles": "COc1ccc(NC(=O)CSc2nnc(-c3cccs3)n2N)cc1S(N)(=O)=O", "CPE inhibition": "inconclusive: 25.8%"},
      {"smiles": "Cc1noc(C)c1NC(=O)Nc1ccc2c(c1)C(=O)N([C@H](C)CO)C[C@H](C)[C@@H](CN(C)S(=O)(=O)c1cccs1)O2", "CPE inhibition": "inconclusive: 35.5%"},
      {"smiles": "CCC(C)Sc1ccc([C@H]2N[C@@](CC(C)C)(C(=O)OC)[C@H]3C(=O)N(C)C(=O)[C@@H]23)cc1", "note": "(stereo partly specified)", "CPE inhibition": "inconclusive: 86.4%"},
      {"smiles": "C[C@@H]1CCCCO[C@H](CN(C)C(=O)Nc2ccc3c(c2)OCO3)[C@H](C)CN([C@H](C)CO)C(=O)c2cc(NC(=O)NC3CCCCC3)ccc2O1", "CPE inhibition": "active: 41.1%"},
      {"smiles": "COc1ccc(S(=O)(=O)Nc2ccc3c(c2)C(=O)N([C@H](C)CO)C[C@H](C)[C@H](CN(C)Cc2ccc(C(=O)O)cc2)O3)cc1", "CPE inhibition": "inconclusive: 29.6%"},
      {"smiles": "O=C(N[C@@H]1CC[C@H](CCNS(=O)(=O)c2ccc(F)cc2)O[C@H]1CO)C1CCOCC1", "CPE inhibition": "inactive: -6.55%"},
      {"smiles": "Cc1nnc(NC(=O)c2cccc(S(=O)(=O)N(C)c3cccc(Cl)c3)c2)s1", "CPE inhibition": "inconclusive: 21.1%"},
      {"smiles": "CCOC(=O)C1=CCN(S(=O)(=O)c2ccccc2Cl)C1c1cccc(F)c1", "note": "(stereo unspecified)", "CPE inhibition": "inconclusive: 32.9%"},
      {"smiles": "COc1ccc(NC(=O)CN(C)C(=O)c2c(C)nn(Cc3ccccc3)c2C)cc1", "CPE inhibition": "inconclusive: 50.3%"},
      {"smiles": "O=C(NCC1CCCO1)c1cc2nc(-c3ccco3)cc(C(F)(F)Cl)n2n1", "note": "(stereo unspecified)", "CPE inhibition": "inconclusive: 22.6%"},
      {"smiles": "CCOc1ccc(NC(=O)c2nn(C)c(C(=O)Nc3ccc(OCC)cc3)c2[N+](=O)[O-])cc1", "CPE inhibition": "active: 34.3%"},
      {"smiles": "Cc1ccc(Cn2c(N)nc3ccccc32)cc1", "CPE inhibition": "inactive: -4.05%"},
      {"smiles": "Cc1ccc(NC(=O)CCC(=O)N/N=C/c2ccc(O)cc2O)cc1", "CPE inhibition": "inactive: 7.8%"},
      {"smiles": "O=C(Nc1ccccc1)OCCN1CCN(Cc2ccccc2)CCC1=O", "CPE inhibition": "inconclusive: 28.4%"},
      {"smiles": "O=C(N[C@H]1C=C[C@@H](CC(=O)N2CCN(c3ccccc3)CC2)O[C@H]1CO)c1ccccc1", "CPE inhibition": "active: 70.9%"},
      {"smiles": "O=C(Nc1nc2ccsc2c(=O)s1)c1ccco1", "CPE inhibition": "inactive: -2.4%"},
      {"smiles": "C=CCNC(=S)N1CCC(Cc2ccccc2)CC1", "CPE inhibition": "inconclusive: 32.8%"},
      {"smiles": "Cc1noc(C)c1NC(=O)Nc1ccc2c(c1)C(=O)N([C@@H](C)CO)C[C@@H](C)[C@H](CN(C)C(=O)Nc1ccccc1)OCCCC[C@H](C)O2", "CPE inhibition": "inactive: -11%"},
      {"smiles": "COc1ccc2c3c(n(C)c2c1)[C@H](CO)N(C)CC31CCN(S(=O)(=O)c2cccs2)CC1", "CPE inhibition": "inconclusive: 22.3%"},
      {"smiles": "COc1ccc(/C=N/NC(=O)c2cccs2)c2ccccc12", "CPE inhibition": "inconclusive: 43.2%"},
      {"smiles": "O=C(c1cccnc1)N1C[C@@H]2[C@H](c3ccccc31)[C@@H](CO)N2C(=O)C1CCCCC1", "CPE inhibition": "active: 52.1%"},
      {"smiles": "CC1CC(C)CN(C(=S)Nc2ccc3nc4n(c(=O)c3c2)CCCCC4)C1", "note": "(stereo unspecified)", "CPE inhibition": "inconclusive: 53.2%"},
      {"smiles": "C[C@H]1CN([C@@H](C)CO)C(=O)c2cc(NC(=O)Cn3cnnn3)ccc2O[C@H]1CN(C)C(=O)Nc1ccc(C(F)(F)F)cc1", "CPE inhibition": "inactive: 1.83%"},
      {"smiles": "COc1cccc(S(=O)(=O)Nc2ccc3c(c2)OC[C@H](C)N(Cc2ccccc2F)C[C@H](C)[C@H](OC)CN(C)C3=O)c1", "CPE inhibition": "inactive: -2.29%"},
      {"smiles": "Cc1cc(C)cc(NC(=O)Nc2ccc(-n3ccc(C(F)(F)F)n3)cc2)c1", "CPE inhibition": "inactive: -12.2%"},
      {"smiles": "CNc1nc(Cl)nc2ncn(C)c12", "CPE inhibition": "inactive: 2.93%"},
      {"smiles": "COc1ccc(CNC(=O)CSCc2c(F)cccc2Cl)cc1", "CPE inhibition": "inactive: 15.4%"},
      {"smiles": "c1ccc(CNc2ccccn2)cc1", "CPE inhibition": "inconclusive: 31.6%"},
      {"smiles": "C[C@@H]1CCCCO[C@@H](CN(C)C(=O)CCCN(C)C)[C@@H](C)CN([C@H](C)CO)C(=O)c2cc(NC(=O)Nc3ccc(F)cc3)ccc2O1", "CPE inhibition": "active: 26.3%"},
      {"smiles": "COc1ccc(N2CCN(C(=O)c3cc(=O)c4cc(Cl)ccc4o3)CC2)cc1", "CPE inhibition": "inconclusive: 24.6%"},
      {"smiles": "COc1ccc(S(=O)(=O)NCC2CCCN(C(=O)CSC)C2)cc1", "note": "(stereo unspecified)", "CPE inhibition": "inconclusive: 20.7%"},
      {"smiles": "COc1ccc(NC(=O)Nc2ccc3c(c2)C(=O)N([C@H](C)CO)C[C@@H](C)[C@H](CN(C)Cc2ccc4c(c2)OCO4)OCCCC[C@@H](C)O3)cc1", "CPE inhibition": "active: 23.6%"},
      {"smiles": "CC(C)NC(=O)N(C)C[C@H]1Oc2ccc(NC(=O)Nc3ccc4c(c3)OCO4)cc2C(=O)N([C@H](C)CO)C[C@H]1C", "CPE inhibition": "inconclusive: 25.6%"}
    ]}
  ]
}
